Measured values as given in publication doi:10.1101/423210.

T1: Ago3 (Drosophila melanogaster (endogenous in ovaries)) (UniProt Q7PLK0)
T1 sequence: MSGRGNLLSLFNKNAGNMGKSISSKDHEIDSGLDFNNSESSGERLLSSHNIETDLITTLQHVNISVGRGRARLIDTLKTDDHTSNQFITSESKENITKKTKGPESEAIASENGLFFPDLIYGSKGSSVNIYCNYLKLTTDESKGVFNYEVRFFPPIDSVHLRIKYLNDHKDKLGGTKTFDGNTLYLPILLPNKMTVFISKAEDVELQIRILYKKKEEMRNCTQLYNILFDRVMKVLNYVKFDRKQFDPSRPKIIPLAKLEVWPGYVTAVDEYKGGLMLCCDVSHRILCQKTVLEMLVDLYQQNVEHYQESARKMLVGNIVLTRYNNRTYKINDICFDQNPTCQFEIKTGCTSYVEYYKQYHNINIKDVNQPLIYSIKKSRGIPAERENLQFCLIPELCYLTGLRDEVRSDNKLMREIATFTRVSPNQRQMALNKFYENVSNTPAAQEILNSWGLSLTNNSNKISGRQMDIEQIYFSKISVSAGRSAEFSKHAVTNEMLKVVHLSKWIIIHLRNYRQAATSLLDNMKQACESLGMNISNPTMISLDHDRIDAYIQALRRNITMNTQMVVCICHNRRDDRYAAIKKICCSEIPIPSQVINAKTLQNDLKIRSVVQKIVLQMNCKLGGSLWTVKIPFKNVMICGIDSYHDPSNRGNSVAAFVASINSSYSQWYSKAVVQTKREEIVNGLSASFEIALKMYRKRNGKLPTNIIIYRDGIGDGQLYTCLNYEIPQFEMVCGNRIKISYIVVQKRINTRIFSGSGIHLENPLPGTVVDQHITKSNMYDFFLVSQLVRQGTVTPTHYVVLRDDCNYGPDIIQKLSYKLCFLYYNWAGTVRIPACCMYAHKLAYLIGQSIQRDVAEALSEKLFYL


Columns and labels:
[1] = biological target: T1, Ago3 (Drosophila melanogaster (endogenous in ovaries)); experiment: co-IP
[2] = biological target: Hop (Hsp70/Hsp90 organizing protein homolog) (Drosophila melanogaster (endogenous in ovaries)) (UniProt Q9VPN5); experiment: co-IP

| binding [1] | binding [2] | Molecule |
| --- | --- | --- |
| binds |  | Hop (Hsp70/Hsp90 organizing protein homolog) (from UniProt Q9VPN5) |
|  | binds | Ago3 (protein, UniProt Q7PLK0 1-867) MSGRGNLLSLFNKNAGNMGKSISSKDHEIDSGLDFNNSESSGERLLSSHNIETDLITTLQHVNISVGRGRARLIDTLKTDDHTSNQFITSESKENITKKTKGPESEAIASENGLFFPDLIYGSKGSSVNIYCNYLKLTTDESKGVFNYEVRFFPPIDSVHLRIKYLNDHKDKLGGTKTFDGNTLYLPILLPNKMTVFISKAEDVELQIRILYKKKEEMRNCTQLYNILFDRVMKVLNYVKFDRKQFDPSRPKIIPLAKLEVWPGYVTAVDEYKGGLMLCCDVSHRILCQKTVLEMLVDLYQQNVEHYQESARKMLVGNIVLTRYNNRTYKINDICFDQNPTCQFEIKTGCTSYVEYYKQYHNINIKDVNQPLIYSIKKSRGIPAERENLQFCLIPELCYLTGLRDEVRSDNKLMREIATFTRVSPNQRQMALNKFYENVSNTPAAQEILNSWGLSLTNNSNKISGRQMDIEQIYFSKISVSAGRSAEFSKHAVTNEMLKVVHLSKWIIIHLRNYRQAATSLLDNMKQACESLGMNISNPTMISLDHDRIDAYIQALRRNITMNTQMVVCICHNRRDDRYAAIKKICCSEIPIPSQVINAKTLQNDLKIRSVVQKIVLQMNCKLGGSLWTVKIPFKNVMICGIDSYHDPSNRGNSVAAFVASINSSYSQWYSKAVVQTKREEIVNGLSASFEIALKMYRKRNGKLPTNIIIYRDGIGDGQLYTCLNYEIPQFEMVCGNRIKISYIVVQKRINTRIFSGSGIHLENPLPGTVVDQHITKSNMYDFFLVSQLVRQGTVTPTHYVVLRDDCNYGPDIIQKLSYKLCFLYYNWAGTVRIPACCMYAHKLAYLIGQSIQRDVAEALSEKLFYL |

No constants are given. Whether binding was seen depends on the method and setting. In cells and extracts the contact can be indirect. Binding can be weak; no strength is given.
